This is an account of results in publication PMC4458714.

Amino acid sequences for entries named in this document (tags omitted).
UniProt O97159: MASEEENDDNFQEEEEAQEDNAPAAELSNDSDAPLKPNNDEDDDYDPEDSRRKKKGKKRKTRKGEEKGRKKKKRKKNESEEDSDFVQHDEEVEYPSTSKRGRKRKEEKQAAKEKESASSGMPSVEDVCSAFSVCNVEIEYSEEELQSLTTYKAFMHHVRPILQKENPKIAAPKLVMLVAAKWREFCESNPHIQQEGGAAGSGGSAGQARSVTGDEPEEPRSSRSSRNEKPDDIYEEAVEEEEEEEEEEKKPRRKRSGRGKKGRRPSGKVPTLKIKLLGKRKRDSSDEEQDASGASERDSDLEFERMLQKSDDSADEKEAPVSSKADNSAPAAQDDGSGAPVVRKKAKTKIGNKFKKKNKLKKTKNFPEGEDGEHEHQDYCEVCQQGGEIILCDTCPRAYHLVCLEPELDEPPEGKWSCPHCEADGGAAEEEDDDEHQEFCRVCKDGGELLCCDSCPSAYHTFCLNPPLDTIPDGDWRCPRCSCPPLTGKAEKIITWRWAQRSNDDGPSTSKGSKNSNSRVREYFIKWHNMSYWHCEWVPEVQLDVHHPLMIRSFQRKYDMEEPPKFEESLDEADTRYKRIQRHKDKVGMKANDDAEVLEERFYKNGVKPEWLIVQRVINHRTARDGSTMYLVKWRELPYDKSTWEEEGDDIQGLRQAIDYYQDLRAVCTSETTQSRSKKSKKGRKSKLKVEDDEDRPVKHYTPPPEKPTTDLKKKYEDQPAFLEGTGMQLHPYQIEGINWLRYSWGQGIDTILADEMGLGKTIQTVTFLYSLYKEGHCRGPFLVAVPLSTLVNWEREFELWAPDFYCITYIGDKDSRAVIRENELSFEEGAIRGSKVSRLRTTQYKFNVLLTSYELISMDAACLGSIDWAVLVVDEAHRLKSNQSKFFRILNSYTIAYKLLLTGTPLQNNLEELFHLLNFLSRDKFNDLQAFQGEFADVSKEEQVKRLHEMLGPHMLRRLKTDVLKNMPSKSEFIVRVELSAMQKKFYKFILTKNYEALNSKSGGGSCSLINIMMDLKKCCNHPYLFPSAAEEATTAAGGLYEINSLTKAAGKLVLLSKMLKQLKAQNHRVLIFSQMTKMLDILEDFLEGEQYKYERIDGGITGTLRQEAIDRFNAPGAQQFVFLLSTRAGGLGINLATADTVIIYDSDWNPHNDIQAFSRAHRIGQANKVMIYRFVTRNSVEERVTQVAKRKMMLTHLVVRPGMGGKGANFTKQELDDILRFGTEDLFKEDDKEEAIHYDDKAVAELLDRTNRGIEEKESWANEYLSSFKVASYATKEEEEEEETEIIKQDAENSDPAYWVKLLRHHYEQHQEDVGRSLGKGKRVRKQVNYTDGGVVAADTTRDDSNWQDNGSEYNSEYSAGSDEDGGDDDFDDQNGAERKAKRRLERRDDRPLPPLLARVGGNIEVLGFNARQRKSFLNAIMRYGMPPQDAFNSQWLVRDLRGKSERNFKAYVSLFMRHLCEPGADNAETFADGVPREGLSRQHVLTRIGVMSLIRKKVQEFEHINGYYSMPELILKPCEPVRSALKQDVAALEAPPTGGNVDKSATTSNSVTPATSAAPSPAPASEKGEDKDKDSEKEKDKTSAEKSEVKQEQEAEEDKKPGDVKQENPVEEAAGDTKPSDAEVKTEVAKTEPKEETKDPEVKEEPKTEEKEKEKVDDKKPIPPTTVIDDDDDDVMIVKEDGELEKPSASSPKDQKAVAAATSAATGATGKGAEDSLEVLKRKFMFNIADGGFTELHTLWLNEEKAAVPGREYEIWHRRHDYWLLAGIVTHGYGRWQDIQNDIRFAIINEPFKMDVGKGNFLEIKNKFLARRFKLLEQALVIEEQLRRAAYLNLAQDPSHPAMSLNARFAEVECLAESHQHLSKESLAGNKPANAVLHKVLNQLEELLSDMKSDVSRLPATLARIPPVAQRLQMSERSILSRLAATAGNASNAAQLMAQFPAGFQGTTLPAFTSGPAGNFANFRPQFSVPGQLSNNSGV

For assay [1], the target named is Mi-2 (Drosophila melanogaster (endogenous in S2 cells)) (UniProt O97159). As to the kind of experiment: co-IP; endogenous proteins: 2 mg untransfected S2 cell extract with a specific antibody (anti-MEP-1, anti-Mi-2 or anti-p66) overnight at 4 °C, Protein G agarose, Western blot; with or without MSL2 knockdown; mock IP with generic IgG. A general note: In western blotting, separated proteins are transferred to a membrane and probed.

Assay [2] has the same target. In words: co-IP; endogenous proteins from S2 cell extracts after RNase treatment, Western blot for Topo II.

Results are given in words; binding and its absence hold for the method and conditions named. Binding seen in cells or lysates may run through a third protein. Some binding calls cover weakened binding; strength is not graded here.

B1: MSL1 (protein, UniProt P50535 1-1039)
chain: MDKRFKWPPKKRANYLESPYPHIPSRGRQRNLHGHPNQTQHLHQHPGKIYERQQYGNGRGGHGGGNNNYRKLLHSLPAEHGGGAMAPPSSGGTVCAGADMVKLISENNNLRRMVMLNLNLMQEQTDSIAAKDKELDDQSAKMSVVKAQNEELKQAVAQLEAANQELCKQLRRKNQRRNDNDDDDDDPPLPPAAPQQKLIRCHAETQTVFREREQGTQTIDAQPQFANALPRGINMKESPALDHHAGAVTNQPASKRSESKGRGEFNGKKVSTFILQRMNQDFEHHIHEQTEVAEEHEMEAHKEQISQEEDQLVAEEDHLHMQEVHTEEVVGGDIFHDALESIEMEVVTEELVDMEEHGQSVDANGHIEEDDDEDDEDDENSDKDDDSEEDDYPWMHSDADVNARTEEELWQNQNYLLELDPTEEKTCAPSAHSTPNHQQKSSTQAEIRKEGNQNRITEKLLQLKPEPMVDALEAPILPKWVAFKKKDKEHESVPESPEVPKQQPHQEDAIVDHNAIKNQLEVPKPDLKPKDQPKDEQRQDGQLDVRVEPQEDVRKVQKETLKRQPEDAPKHLPKAVAPKVTKTSSRESTLPKANTADIKDAPAQKVIANHQSTKTQTDPVKTQRLQVKIRQYEMHPDMRTGSSAPSDIRKQKNVDPVSTPETKTIKSKSMLVNDKKTTSETSQSPDQEIDVETVRRKLAEHLKKELLSQSHSSQVTLKKIRERVATNLIYPPPSAPVSSTTITPAPTPSTTPTPGSTPQHAVTSSMDQEISAAKSKSKAAEQIATPLTPQSNSSVSSTTSTIRKTLNNCSPHTYSKATARSGKLQSRFRTATFPYSTRTWEDQEFHCDNEFFLEEADELLADNPSLEIPKWRDVPVPPSSDKIDTELLSDATFERRHQKYVKDEVDRKCRDARYMKEQIRLEQLRMRRNQDEVLVALDPLRASTFYPLPEDIEAIQFVNEVTVQAFGENVVNMEARDDFGVPWVDAIEAPTSIARSKALAEPVATLASKKIPTTAAEARHQENHSSYVFPKRRKRQKNR
With B1, the binding entry in assay [1] is listed as “no binding”.

B2: Topo II (protein, UniProt P15348 1-1447)
chain: MENGNKALSIEQMYQKKSQLEHILLRPDSYIGSVEFTKELMWVYDNSQNRMVQKEISFVPGLYKIFDEILVNAADNKQRDKSMNTIKIDIDPERNMVSVWNNGQGIPVTMHKEQKMYVPTMIFGHLLTSSNYNDDEKKVTGGRNGYGAKLCNIFSTSFTVETATREYKKSFKQTWGNNMGKASDVQIKDFNGTDYTRITFSPDLAKFKMDRLDEDIVALMSRRAYDVAASSKGVSVFLNGNKLGVRNFKDYIDLHIKNTDDDSGPPIKIVHEVANERWEVACCPSDRGFQQVSFVNSIATYKGGRHVDHVVDNLIKQLLEVLKKKNKGGINIKPFQVRNHLWVFVNCLIENPTFDSQTKENMTLQQKGFGSKCTLSEKFINNMSKSGIVESVLAWAKFKAQNDIAKTGGRKSSKIKGIPKLEDANEAGGKNSIKCTLILTEGDSAKSLAVSGLGVIGRDLYGVFPLRGKLLNVREANFKQLSENAEINNLCKIIGLQYKKKYLTEDDLKTLRYGKVMIMTDQDQDGSHIKGLLINFIHTNWPELLRLPFLEEFITPIVKATKKNEELSFYSLPEFEEWKNDTANHHTYNIKYYKGLGTSTSKEAKEYFQDMDRHRILFKYDGSVDDESIVMAFSKKHIESRKVWLTNHMDEVKRRKELGLPERYLYTKGTKSITYADFINLELVLFSNADNERSIPSLVDGLKPGQRKVMFTCFKRNDKREVKVAQLSGSVAEMSAYHHGEVSLQMTIVNLAQNFVGANNINLLEPRGQFGTRLSGGKDCASARYIFTIMSPLTRLIYHPLDDPLLDYQVDDGQKIEPLWYLPIIPMVLVNGAEGIGTGWSTKISNYNPREIMKNLRKMINGQEPSVMHPWYKNFLGRMEYVSDGRYIQTGNIQILSGNRLEISELPVGVWTQNYKENVLEPLSNGTEKVKGIISEYREYHTDTTVRFVISFAPGEFERIHAEEGGFYRVFKLTTTLSTNQMHAFDQNNCLRRFPTAIDILKEYYKLRREYYARRRDFLVGQLTAQADRLSDQARFILEKCEKKLVVENKQRKAMCDELLKRGYRPDPVKEWQRRIKMEDAEQADEEDEEEEEAAPSVSSKAKKEKEVDPEKAFKKLTDVKKFDYLLGMSMWMLTEEKKNELLKQRDTKLSELESLRKKTPEMLWLDDLDALESKLNEVEEKERAEEQGINLKTAKALKGQKSASAKGRKVKSMGGGAGAGDVFPDPDGEPVEFKITEEIIKKMAAAAKVAQAAKEPKKPKEPKEPKVKKEPKGKQIKAEPDASGDEVDEFDAMVEGGSKTSPKAKKAVVKKEPGEKKPRQKKENGGGLKQSKIDFSKAKAKKSDDDVEEVTPRAERPGRRQASKKIDYSSLFSDEEEDGGNVGSDDDGNASDDDSPKRPAKRGREDESSGGAKKKAPPKKRRAVIESDDDDIEIDEDDDDDSDFNC
Turning to B2, the binding entry in assay [2] is given as “no binding (condition: after RNase treatment)”; in assay [1], “binds”.
